Here are results for 22 targets from the supplement of paper PMC10849652.

Chains of the proteins cited; added tags and fusions are not shown. Lines headed by an entry give the natural chain unless they say otherwise; changes in a name come on top.
UniProt Q9BS16: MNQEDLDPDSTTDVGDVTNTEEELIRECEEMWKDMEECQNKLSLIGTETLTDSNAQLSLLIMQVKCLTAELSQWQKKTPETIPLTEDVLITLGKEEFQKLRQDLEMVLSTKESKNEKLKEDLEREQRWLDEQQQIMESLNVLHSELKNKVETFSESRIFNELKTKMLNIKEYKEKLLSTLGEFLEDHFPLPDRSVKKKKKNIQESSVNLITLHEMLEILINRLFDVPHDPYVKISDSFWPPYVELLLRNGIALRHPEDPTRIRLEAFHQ
UniProt Q9UFW8: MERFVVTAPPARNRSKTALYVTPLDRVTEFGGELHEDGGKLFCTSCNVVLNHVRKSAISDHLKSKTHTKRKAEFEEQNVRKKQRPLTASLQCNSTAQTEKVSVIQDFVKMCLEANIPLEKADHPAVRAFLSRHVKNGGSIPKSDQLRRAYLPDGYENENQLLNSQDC
UniProt Q8N960: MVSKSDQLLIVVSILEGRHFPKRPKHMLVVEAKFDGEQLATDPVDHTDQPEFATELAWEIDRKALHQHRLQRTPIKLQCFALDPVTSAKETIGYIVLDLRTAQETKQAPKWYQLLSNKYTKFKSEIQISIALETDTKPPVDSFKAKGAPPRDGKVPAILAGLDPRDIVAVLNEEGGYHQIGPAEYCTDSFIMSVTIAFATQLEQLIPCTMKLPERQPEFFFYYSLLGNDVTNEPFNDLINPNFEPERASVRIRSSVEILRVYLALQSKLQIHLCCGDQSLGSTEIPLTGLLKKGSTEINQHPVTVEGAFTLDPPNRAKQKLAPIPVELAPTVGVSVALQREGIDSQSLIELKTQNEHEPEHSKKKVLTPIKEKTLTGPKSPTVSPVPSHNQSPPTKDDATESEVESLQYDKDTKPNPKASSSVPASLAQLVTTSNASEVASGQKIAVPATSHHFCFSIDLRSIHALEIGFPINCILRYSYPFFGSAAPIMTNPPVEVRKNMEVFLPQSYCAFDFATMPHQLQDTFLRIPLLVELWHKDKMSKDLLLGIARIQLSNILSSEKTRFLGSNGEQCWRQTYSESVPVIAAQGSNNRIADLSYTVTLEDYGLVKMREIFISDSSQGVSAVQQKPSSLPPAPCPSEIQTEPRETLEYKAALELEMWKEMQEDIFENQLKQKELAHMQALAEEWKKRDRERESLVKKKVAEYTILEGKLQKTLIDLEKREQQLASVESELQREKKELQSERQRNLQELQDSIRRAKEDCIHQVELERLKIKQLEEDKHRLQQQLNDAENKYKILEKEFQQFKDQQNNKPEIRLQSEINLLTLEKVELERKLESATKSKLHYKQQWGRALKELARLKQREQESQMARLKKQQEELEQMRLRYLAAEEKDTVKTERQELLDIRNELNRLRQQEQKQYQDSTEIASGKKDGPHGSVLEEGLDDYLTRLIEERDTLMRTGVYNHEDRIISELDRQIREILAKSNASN
UniProt Q9BV73: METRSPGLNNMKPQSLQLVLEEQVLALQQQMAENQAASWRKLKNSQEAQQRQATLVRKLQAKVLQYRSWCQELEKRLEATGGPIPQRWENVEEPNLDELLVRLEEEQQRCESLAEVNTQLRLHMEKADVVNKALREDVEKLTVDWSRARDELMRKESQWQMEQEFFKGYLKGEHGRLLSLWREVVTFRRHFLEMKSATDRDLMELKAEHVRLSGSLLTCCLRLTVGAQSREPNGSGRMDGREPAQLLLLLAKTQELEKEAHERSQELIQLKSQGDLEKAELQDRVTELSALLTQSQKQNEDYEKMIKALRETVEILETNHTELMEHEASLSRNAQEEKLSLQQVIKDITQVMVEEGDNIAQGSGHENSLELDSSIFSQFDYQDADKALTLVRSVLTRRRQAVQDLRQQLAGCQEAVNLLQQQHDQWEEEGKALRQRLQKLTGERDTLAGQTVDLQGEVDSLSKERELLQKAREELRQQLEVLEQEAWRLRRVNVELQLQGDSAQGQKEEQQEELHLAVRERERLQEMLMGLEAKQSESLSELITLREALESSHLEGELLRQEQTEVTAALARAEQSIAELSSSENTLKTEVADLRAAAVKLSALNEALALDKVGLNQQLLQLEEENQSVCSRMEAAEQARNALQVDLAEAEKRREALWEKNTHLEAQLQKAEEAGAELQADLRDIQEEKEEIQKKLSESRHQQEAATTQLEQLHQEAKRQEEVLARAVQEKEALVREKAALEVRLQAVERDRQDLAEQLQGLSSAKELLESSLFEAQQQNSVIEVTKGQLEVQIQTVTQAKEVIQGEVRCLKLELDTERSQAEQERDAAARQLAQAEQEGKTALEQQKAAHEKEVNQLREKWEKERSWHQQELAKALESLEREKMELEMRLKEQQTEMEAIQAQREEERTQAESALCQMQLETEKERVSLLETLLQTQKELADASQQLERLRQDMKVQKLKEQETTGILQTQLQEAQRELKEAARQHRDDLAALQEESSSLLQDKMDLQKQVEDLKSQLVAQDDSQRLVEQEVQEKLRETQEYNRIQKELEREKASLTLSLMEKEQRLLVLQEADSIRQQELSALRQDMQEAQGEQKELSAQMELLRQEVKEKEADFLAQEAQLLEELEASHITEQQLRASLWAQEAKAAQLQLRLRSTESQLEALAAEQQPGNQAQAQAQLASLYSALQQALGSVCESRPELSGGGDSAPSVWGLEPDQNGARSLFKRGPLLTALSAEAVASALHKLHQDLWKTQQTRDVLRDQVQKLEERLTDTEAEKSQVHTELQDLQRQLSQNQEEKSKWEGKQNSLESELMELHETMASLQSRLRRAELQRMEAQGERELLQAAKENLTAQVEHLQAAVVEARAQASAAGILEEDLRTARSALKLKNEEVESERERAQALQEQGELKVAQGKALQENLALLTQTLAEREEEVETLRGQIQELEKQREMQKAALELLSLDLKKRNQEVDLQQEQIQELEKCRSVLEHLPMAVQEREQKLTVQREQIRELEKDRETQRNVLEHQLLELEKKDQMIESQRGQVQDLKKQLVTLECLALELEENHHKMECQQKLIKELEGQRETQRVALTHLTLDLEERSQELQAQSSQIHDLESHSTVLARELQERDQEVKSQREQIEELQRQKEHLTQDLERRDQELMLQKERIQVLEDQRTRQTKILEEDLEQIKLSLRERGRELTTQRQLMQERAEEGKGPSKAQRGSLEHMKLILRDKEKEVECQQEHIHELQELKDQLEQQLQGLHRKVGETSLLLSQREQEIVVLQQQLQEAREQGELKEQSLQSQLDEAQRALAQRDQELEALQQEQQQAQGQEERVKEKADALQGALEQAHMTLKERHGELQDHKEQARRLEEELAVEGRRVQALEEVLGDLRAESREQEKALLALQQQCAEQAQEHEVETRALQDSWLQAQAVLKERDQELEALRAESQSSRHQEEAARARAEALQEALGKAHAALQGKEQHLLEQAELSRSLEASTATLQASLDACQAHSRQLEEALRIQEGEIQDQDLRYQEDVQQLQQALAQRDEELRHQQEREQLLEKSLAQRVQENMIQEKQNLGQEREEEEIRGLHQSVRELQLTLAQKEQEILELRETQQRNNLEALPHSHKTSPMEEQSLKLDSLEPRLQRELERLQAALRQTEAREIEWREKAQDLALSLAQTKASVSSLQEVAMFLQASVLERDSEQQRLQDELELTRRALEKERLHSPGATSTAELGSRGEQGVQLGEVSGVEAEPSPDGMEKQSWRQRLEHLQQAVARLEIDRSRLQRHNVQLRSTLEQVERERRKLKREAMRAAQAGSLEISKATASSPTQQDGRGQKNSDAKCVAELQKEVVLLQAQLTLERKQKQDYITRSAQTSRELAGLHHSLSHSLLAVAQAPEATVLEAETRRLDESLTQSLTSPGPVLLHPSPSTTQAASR
UniProt P48960: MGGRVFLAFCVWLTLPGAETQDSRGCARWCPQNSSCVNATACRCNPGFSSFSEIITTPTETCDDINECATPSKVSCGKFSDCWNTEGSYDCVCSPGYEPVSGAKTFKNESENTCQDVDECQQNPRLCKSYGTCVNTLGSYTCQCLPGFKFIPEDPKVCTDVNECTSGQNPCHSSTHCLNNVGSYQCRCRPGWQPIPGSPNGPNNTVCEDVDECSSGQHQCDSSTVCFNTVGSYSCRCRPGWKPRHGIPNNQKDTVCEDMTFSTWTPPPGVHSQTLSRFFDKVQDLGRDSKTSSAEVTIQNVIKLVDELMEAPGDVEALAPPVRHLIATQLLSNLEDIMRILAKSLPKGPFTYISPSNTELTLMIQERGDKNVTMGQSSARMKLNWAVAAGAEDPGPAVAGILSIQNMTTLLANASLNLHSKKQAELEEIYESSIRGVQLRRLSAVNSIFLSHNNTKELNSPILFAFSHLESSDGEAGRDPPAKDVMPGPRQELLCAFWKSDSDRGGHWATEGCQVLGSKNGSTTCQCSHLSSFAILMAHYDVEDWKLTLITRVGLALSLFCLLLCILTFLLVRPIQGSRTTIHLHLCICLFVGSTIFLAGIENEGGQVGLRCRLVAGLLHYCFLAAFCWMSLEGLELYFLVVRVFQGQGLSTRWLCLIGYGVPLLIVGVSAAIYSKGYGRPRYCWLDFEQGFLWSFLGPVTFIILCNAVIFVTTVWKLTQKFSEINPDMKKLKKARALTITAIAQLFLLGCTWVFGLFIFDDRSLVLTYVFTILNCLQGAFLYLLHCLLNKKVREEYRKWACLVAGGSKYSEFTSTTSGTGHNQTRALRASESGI
UniProt Q9UJX2, whole entry, looked up: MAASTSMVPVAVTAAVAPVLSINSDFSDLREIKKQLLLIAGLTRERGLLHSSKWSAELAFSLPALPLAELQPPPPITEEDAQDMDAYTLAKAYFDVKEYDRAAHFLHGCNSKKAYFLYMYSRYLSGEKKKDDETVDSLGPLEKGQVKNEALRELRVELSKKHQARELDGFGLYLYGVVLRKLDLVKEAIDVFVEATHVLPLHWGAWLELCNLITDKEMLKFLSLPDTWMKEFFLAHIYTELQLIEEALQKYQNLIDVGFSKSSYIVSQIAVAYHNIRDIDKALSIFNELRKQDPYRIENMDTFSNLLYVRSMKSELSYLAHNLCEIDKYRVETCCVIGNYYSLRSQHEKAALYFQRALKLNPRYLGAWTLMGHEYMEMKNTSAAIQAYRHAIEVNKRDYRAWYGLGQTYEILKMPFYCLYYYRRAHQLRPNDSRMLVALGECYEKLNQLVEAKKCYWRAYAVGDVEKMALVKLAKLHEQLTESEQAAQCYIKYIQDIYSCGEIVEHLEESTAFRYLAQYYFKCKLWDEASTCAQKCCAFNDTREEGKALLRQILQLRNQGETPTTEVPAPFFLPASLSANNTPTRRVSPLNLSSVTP
UniProt P30305: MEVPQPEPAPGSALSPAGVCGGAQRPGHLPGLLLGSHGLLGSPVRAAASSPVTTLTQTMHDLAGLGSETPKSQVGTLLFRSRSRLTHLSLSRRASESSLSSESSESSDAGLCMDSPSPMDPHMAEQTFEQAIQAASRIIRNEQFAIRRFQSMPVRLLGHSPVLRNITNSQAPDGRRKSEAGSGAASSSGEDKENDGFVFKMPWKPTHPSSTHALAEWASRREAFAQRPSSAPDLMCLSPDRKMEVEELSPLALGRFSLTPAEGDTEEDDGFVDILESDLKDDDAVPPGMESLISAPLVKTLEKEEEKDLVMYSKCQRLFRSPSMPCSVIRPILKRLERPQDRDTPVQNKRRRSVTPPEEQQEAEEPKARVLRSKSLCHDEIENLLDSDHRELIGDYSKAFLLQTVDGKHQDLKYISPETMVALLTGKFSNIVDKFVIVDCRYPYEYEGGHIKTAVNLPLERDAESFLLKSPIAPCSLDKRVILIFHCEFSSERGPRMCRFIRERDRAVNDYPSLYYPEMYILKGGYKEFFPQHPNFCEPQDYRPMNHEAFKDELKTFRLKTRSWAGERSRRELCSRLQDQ
UniProt Q9NXV6: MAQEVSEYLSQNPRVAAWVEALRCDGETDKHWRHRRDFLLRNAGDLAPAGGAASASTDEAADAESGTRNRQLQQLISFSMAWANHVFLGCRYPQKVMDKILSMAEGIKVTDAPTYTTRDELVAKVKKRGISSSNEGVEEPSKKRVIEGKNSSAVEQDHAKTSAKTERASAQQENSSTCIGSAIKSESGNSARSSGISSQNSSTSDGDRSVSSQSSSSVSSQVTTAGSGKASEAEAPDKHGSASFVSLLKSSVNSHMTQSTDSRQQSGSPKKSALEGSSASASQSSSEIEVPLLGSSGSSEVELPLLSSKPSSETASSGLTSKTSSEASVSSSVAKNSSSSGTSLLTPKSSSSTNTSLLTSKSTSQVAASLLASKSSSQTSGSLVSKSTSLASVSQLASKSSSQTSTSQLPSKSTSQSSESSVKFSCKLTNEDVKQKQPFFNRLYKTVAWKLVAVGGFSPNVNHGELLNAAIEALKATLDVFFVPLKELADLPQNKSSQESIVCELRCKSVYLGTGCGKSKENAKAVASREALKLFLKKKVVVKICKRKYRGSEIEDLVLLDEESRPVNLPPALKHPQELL

This is one part of the list.

Compound in this experiment: c1cn2cc(-c3ccc4cn[nH]c4c3)nc(Nc3ccc(N4CCOCC4)cc3)c2n1 [entospletinib]
Put plainly: log2 fold change, soluble protein after heating vs DMSO (PISA); higher = thermal stabilisation; K562 lysate, 10 uM; active = over 0.2 and 3.5 SD of the protein, either way, in both replicates (recomputed). The method, boiled down: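 Thermal stability, expressed as log-two fold change relative to solvent controls, is given from duplicates. Crude K562 extract in PBS pH 7.4 with 1 mM MgCl2, at 1 mg/mL protein, was treated with 10 μM compound for 30 min and heated in aliquots for 3 min across 48°C-58°C. After pooling, adjustment to 0.5% NP-40 at 4°C and centrifugation at 21,000xg for 90 min, supernatant protein was measured by TMTpro 16plex LC-MS/MS with channel sums equalised.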
Consider CENPK (UniProt Q9BS16), for which the log2 fold change is inactive: 0. In the case of CDK19 (UniProt Q9BWU1), the log2 fold change was inactive: 0.147. Next, CENPU (UniProt Q71F23): inactive: -0.062; CGGBP1 (UniProt Q9UFW8): inactive: 0.

In the case of CEP290 (UniProt O15078), the log2 fold change is inactive: -0.08. To CDC42 (UniProt P60953) belongs inactive: -0.063; to CEP120 (UniProt Q8N960), inactive: -0.13.

For the target CDC27 isoform 2 (UniProt P30260), the log2 fold change was inactive: 0.006. Next, CEP250 (UniProt Q9BV73): inactive: -0.058; CEBPZ (UniProt Q03701): inactive: 0.047; CD97 (UniProt P48960): inactive: -0.026. Consider CFAP298 (UniProt P57076), for which the log2 fold change was inactive: 0.012.

For CDK7 (UniProt P50613), the log2 fold change was inactive: 0.019. Next, CHAC2 (UniProt Q8WUX2): inactive: -0.052; CDC23 (UniProt Q9UJX2): inactive: 0.012. To CFAP47 (UniProt Q6ZTR5) belongs inactive: -0.054; to CDC25B (UniProt P30305), inactive: -0.012; to CDC25C (UniProt P30307), inactive: -0.01.

Take CDK17 isoform 2 (UniProt Q00537): the log2 fold change was inactive: -0.162. For CFL2 (UniProt Q9Y281), the log2 fold change is inactive: -0.029. To CDC20 (UniProt Q12834) belongs inactive: 0.004; to CDKN2AIP (UniProt Q9NXV6), inactive: 0.013.
